PubChem BioAssay AID1508597 | Cure First, 2020

Assay: 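Knock-downs altering ovarian cancer cell survival with or without PARP inhibitor rucaparib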 (primary screen)
Cells: human ovarian carcinoma lines grown from tumours: OCI-P5x (papillary serous) and OCI-C5x (clear cell)
Knock-down reagent: siRNA pool against human genes, 1.25 pmol siRNA per well
Duration: 72 h or 96 h, depending on the cell culture
Treatment: rucaparib 20 µM (about IC30) or vehicle, present until read-out
Rucaparib or vehicle: Rucaparib
Cell line: OCI-C5x (clear cell)
Measured: 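Luminescent ATP-based viability assay read 72 or 96 h after transfection, depending on culture, given as normalised percent viability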
Reading the numbers: viability, normalised: higher = more viable cells remaining
Hit rule: 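Active when normalised viability falls below 80 percent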
Meaning of the calls: active = viability under 80%; inactive = viability 80% or more
Shown is a random part of the about 2,100 reagents, in one setting of the screen. 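Calls flag viability under 80% in either arm, not effects specific to rucaparib; the reference for percent is not stated.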 A reagent listed more than once was tested more than once; the source does not tell the runs apart. The record does not give: the 100% reference.

target gene	technical replicate	viability, normalised (%)	activity call
SMARCE1	1	25.2	active
SMARCE1	2	46.3	active
SMARCE1	3	31.9	active
TPK1	1	56.4	active
TPK1	2	72.3	active
TPK1	3	53	active
SUPV3L1	1	54	active
SUPV3L1	1	48.5	active
SUPV3L1	2	42.4	active
SUPV3L1	2	36.1	active
SUPV3L1	3	58.9	active
SUPV3L1	3	42.4	active
DDX3X	1	34.6	active
DDX3X	1	61.7	active
DDX3X	2	30.7	active
DDX3X	2	79.1	active
DDX3X	3	42.4	active
DDX3X	3	35.4	active
LIG1	1	54.8	active
LIG1	2	53.3	active
LIG1	3	76.6	active
GALK1	1	48.8	active
GALK1	2	59.2	active
GALK1	3	51.7	active
POU4F1	1	52.8	active
POU4F1	2	49.9	active
POU4F1	3	46.4	active
MAST2	1	80.9	inactive
MAST2	2	57.5	active
MAST2	3	63	active
CXXC4	1	44.1	active
CXXC4	2	48.9	active
CXXC4	3	34.9	active
MUSK	1	54.1	active
MUSK	2	61.1	active
MUSK	3	51.2	active
URI1	1	68.9	active
URI1	2	73.4	active
URI1	3	69.4	active
